These results are taken from PMC11413451 (Frontiers in Cell and Developmental Biology, 2024).

The series can be described thus: Steroid concentrations in charcoal-stripped follicular fluid by LC-MS/MS. Further details: species or system human.
As to `C[C@]12CCC(=O)C=C1CC[C@@H]1[C@@H]2CC[C@]2(C)C(=O)CC[C@@H]12` [androstenedione], the “concentration in charcoal-stripped follicular fluid (sFF)” value amounted to 0.365 nM.
The result for `C[C@]12CC[C@@H]3c4ccc(O)cc4CC[C@H]3[C@@H]1CC[C@@H]2O` [estradiol] reads 54 nM.
As for `CC(=O)[C@H]1CC[C@H]2[C@@H]3CCC4=CC(=O)CC[C@]4(C)[C@H]3CC[C@]12C` [progesterone], the figure is 262 nM; as for `C[C@]12CC[C@H]3[C@@H](CCC4=CC(=O)CC[C@@]43C)[C@@H]1CC[C@@H]2O` [testosterone], 0.32 nM.
